The values below come from US20120148607A1.

By UniProt entry, the sequences of proteins in these tests, tags left out. Where a name states a change or a piece, a line headed by the entry shows the natural chain unless it says otherwise.
UniProt P08581: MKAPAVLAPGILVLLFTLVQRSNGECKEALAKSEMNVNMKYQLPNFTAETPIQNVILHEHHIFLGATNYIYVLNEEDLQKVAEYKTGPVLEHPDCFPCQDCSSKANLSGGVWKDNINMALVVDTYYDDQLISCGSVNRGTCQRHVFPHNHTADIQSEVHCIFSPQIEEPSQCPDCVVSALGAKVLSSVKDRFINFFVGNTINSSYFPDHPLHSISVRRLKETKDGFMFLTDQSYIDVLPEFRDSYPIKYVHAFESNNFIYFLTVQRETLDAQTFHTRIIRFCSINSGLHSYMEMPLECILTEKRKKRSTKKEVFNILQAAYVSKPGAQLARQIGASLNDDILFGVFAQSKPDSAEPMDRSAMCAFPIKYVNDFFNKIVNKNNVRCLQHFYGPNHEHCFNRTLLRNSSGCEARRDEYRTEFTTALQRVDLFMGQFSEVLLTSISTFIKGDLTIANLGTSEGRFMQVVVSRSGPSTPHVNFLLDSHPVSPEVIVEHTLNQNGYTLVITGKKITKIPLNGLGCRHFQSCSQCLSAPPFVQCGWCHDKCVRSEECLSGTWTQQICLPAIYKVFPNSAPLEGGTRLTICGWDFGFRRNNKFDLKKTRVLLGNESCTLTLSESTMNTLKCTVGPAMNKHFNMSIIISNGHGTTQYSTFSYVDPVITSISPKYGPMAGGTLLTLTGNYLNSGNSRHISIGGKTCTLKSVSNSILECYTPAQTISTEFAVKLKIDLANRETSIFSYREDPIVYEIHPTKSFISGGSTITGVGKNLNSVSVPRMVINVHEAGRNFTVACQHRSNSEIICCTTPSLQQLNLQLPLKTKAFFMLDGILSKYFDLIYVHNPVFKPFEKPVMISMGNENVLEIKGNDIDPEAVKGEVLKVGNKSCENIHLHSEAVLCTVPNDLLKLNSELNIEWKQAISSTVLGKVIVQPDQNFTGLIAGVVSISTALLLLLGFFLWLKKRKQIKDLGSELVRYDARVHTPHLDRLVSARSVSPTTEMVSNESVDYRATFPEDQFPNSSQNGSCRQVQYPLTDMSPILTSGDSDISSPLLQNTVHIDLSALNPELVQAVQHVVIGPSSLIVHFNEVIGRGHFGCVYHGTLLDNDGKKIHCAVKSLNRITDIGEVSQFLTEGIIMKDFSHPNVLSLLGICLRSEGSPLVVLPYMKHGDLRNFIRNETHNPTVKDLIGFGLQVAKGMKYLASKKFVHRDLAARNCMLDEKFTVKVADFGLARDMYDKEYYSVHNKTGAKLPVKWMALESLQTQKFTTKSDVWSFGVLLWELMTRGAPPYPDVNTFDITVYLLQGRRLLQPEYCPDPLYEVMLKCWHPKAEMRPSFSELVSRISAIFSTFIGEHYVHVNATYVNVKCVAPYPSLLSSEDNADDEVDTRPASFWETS

Assay [1] addresses Llama glama c-Met ECD (aa 25-932) with His tag (Llama glama). In words: ELISA on immobilised c-Met ECD constructs (200 ng).
Assay [2] concerns the target c-Met run under reducing conditions (Western Blot) (UniProt P08581). In words: Western Blot with c-Met run under reducing conditions. (In general: In western blotting, separated proteins are transferred to a membrane and probed.)
In assay [3] the target is LMet (llama c-Met of Table 16) (Llama glama). In words: ELISA, 48A2 (2 µg/ml) immobilised, c-Met construct added, streptavidin-HRP. In general terms: An ELISA detects its analyte on a solid surface through an enzyme-linked reagent.
Assay [4] has the same target. In words: SPR, 48A2 coupled on CM-5 chip, c-Met construct injected. (Surface plasmon resonance follows binding to a sensor surface in real time, without labels.)
The target in assay [5] is Llama glama c-Met ECD (aa 25-932) with His tag (Llama glama). Description: condition: about 1e-7 M (last point midway between the ticks 10^-8 and 10^-6); ELISA: 200 ng of the c-Met ECD protein coated on maxisorb plates; mAb dilutions 1 h RT; HRP-conjugated goat anti-human antibody, TMB, OD 620 nm.
Assay [6] has as its target LMet (llama c-Met of Table 16) (Llama glama). Description: ELISA, 36C4 (2 µg/ml) immobilised, c-Met construct added, streptavidin-HRP.
Assay [7] shares this target. Description: SPR, 36C4 coupled on CM-5 chip, c-Met construct injected.

These are yes or no findings as the source states them, for the method shown.

B1: 48A2 mAb (antibody, V domains shown)
VH: EVQLVQPGVELRNPGASVKVSCKASGYIFTMNSIDWVRQAPGQGLEWMGRIDPEDGGTKYAQKFQGRVTFTADTSTSTAYVELNSLRSEDTAVYYCARVDDYYLGYDYWGQGTQVTVSS
VL: DIVMTQTPTSVTASAGDKVTINCKSSQSVLFSSNQKNYLAWYQQRLGQSPRLLIYWASIRESGVPDRFSGSGSATDFTLTISNFQPEDAAVYYCQQGYSFPYSFGSGTRLEIR
With B1, the binding entry is on record as “no binding” in assay [1], “no binding” in assay [2], “no binding” in assay [3] and “no binding (tested: 10 µg/ml)” in assay [4].

B2: 13E6 mAb (antibody, V domains shown)
VH: QVQLQESGGDLVQPGGSLRLSCAASGFTFDDYVMNWVRQAPGKGLEWISAINWNGGSTYYAESMKGRFTISRDNAKNTLYLQMYSLQSDDTAVYYCVKDTVVSGNGYWGQGTQVTVSS
VL: QSVLTQPPSVSGTLGKTVTISCAGTSSDIGDYNYVSWYQQLPGTAPKLLIYDVNKRASGIPDRFSGSKSGNTASLSISGLQSEDEADYYCASYRSRNDYAFGGGTKLTVL
For B2, the binding entry in assay [5] and in assay [1] was “no binding” throughout.

B3: 36C4 mAb (antibody, V domains shown)
VH: QVQLVESGPGLVKPSQTLSLTCAVSGGSITTNYYYWSWIRQSPGKGLEWMGVIAYDGSTDYSPSLKSRTSISRDTSKNQFSLQLSSVTPEDTAVYYCARDVRVIATGWATANALDAWGQGTLVTVSS
VL: QSVLTQPPSVSGSPGKTVTISCAGTSSDVGYGNYVSWYQQLPGTAPKLLIFAVSYRASGIPDRFSGSKSGNTAFLTISGLQSEDEADYYCASYRSSNNAAVFGGGTHLTVL
On to B3, for which the binding entry in assay [6] is given as “no binding”; in assay [5], “no binding”; in assay [1], “no binding”; in assay [7], “no binding (tested: 10 µg/ml)”; in assay [2], “no binding”.
